Holding throughout (conditions): stereoisomer not certain
The test system of assay [1] is O2A25. The method, boiled down:
(§1)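 Each receptor–molecule pair is labelled responsive or non-responsive (inactive) according to whether the original authors judged the measured signal statistically different from baseline. The data were taken from the main text and supplementary material of published papers and checked for typos and inconsistencies. Assay methods differed by source, with transient luciferase assays in mammalian cell lines being common.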

Chains of the proteins cited; added tags and fusions are not shown. Chains listed by the source or under a name are the forms on record and can include a tag or linker.
O2A25, as listed by the source: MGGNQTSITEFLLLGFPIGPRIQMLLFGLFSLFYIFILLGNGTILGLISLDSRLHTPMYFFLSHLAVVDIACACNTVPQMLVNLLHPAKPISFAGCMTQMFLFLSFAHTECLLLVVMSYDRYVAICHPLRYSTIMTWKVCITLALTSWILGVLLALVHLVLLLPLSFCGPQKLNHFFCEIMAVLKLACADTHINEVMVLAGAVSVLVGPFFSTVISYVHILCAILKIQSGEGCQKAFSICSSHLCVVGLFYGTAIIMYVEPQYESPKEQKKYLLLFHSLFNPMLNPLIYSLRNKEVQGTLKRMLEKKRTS

In assay [2] the test system is O2A25. The method, boiled down:
as §1
This is another data set of the same source.

For assay [3], the system named is O2A25. The essentials: as §1
This is another data set of the same source.

The subject of assay [4] is O2A25. The essentials: as §1
The source holds these as a separate data set.

The next assay has as its system T1, O14L1.
T1 sequence (whole entry): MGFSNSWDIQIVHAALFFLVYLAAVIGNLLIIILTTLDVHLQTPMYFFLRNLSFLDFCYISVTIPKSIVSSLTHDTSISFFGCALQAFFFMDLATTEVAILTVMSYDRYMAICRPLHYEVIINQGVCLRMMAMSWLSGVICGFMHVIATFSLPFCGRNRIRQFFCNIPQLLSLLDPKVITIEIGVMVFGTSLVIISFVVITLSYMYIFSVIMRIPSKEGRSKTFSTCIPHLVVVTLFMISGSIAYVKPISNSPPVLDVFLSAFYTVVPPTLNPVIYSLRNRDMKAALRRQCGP
The method, boiled down: as §1

In a further assay the test system is T2, O2A14.
T2 sequence (whole entry): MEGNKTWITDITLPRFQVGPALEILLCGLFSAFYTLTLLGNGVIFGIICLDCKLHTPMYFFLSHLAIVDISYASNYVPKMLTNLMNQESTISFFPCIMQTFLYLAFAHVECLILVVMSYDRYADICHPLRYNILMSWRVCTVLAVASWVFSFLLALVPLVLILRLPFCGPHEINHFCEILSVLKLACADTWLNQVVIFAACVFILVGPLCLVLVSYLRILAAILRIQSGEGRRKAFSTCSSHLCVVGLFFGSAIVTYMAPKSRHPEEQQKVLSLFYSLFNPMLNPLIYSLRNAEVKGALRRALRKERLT
The method, boiled down: as §1

The test system of the next assay is T3, O2AE1.
T3 sequence (whole entry): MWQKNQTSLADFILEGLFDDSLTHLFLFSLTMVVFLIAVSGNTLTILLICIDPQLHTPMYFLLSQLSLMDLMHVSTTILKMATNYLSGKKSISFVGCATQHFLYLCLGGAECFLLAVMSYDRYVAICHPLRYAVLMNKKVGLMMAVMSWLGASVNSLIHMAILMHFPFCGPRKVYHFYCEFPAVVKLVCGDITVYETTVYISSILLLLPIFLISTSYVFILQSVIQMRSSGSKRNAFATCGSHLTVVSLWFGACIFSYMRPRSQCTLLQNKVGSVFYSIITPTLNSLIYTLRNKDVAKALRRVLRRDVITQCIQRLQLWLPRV
The method, boiled down: as §1

For a further assay, the system named is T4, O2AG2.
T4 sequence (whole entry): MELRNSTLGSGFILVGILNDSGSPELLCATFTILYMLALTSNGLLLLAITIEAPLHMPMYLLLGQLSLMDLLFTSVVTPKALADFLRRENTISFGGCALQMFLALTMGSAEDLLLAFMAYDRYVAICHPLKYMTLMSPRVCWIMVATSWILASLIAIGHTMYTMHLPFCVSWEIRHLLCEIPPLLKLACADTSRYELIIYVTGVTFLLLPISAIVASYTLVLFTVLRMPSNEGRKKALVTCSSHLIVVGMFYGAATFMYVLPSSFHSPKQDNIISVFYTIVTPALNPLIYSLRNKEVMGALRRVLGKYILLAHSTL
The essentials:
as §1

Another assay deals with T5, O2AJ1.
T5 sequence (whole entry): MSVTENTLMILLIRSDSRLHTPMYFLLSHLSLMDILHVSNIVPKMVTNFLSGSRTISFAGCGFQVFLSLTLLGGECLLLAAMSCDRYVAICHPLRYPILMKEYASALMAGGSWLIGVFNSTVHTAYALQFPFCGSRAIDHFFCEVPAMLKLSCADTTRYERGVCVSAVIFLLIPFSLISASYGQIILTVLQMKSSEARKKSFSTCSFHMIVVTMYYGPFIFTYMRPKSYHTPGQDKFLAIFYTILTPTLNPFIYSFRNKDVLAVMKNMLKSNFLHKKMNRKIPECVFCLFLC
The method, boiled down:
as §1

The subject of the next assay is T6, O2AK2.
T6 sequence (whole entry): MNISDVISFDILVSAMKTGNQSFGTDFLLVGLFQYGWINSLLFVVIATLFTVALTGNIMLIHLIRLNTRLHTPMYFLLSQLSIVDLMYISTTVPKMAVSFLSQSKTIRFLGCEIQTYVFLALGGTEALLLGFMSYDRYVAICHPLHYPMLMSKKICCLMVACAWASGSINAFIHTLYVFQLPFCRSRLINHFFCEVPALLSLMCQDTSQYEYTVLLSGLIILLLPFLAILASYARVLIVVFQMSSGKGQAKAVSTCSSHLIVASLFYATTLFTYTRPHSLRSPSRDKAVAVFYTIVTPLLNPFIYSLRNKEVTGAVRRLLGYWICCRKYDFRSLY
The essentials:
as §1

The list shows a part of the results, in another mix than the full data. Calls are pooled over several reports, among them a noisy single-well screen. The list shows a part of the results.
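Note: active if original authors judged signal statistically different from baseline.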

Consider `CC(=O)OCC=C(C)CCC=C(C)C`, for which the “odorant receptor agonist call” value in the assay on O2A25 [1], with O2A25 [2], in the assay with O2A25 [3] and in the assay with O2A25 [4] was “active” in each case.

As for `O=C1CCCCCCCCCCCCCCO1`, the “odorant receptor agonist call” value with O14L1, in the assay with O2A14, in the assay on O2AE1, in the assay on O2AG2, in the assay with O2AJ1 and in the assay with O2AK2 was “inactive” throughout.

In the case of `CCCCCCCOC(C)=O`, the “odorant receptor agonist call” value in the assay with O14L1, in the assay with O2A14, in the assay on O2AE1, in the assay on O2AG2, with O2AJ1 and with O2AK2 was “inactive” in each case.

Turning to `c1ccc(Oc2ccccc2)cc1`, the “odorant receptor agonist call” value in the assay on O14L1, in the assay with O2A14, in the assay with O2AE1, with O2AG2, in the assay on O2AJ1 and in the assay with O2AK2 was “inactive” in each case.

On to `C=CCSCC=C`, for which the “odorant receptor agonist call” value in the assay on O14L1, with O2A14, in the assay on O2AE1, in the assay with O2AG2, in the assay on O2AJ1 and in the assay with O2AK2 was “inactive” each time.

In the case of `CC1CCC(C(C)C)C(O)C1` (stereo not drawn), the “odorant receptor agonist call” value in the assay on O14L1, with O2AE1, with O2AJ1 and in the assay on O2AK2 was “inactive” in each case. The “odorant receptor agonist call” value in the assay on O2A14 and in the assay on O2AG2 was “active” in each case.

Take `CCCCCOC(C)=O`: the “odorant receptor agonist call” value with O14L1, with O2AG2, in the assay on O2AJ1 and with O2AK2 was “inactive” each time. Moreover, in the assay on O2AE1, the “odorant receptor agonist call” value is “active”.

Take `CCCCCCCCCC=O`: the “odorant receptor agonist call” value in the assay with O14L1, in the assay on O2A14, in the assay with O2AE1, with O2AG2, in the assay on O2AJ1 and in the assay on O2AK2 was “inactive” throughout.

Turning to `CC=Cc1ccc(O)c(OC)c1`, the “odorant receptor agonist call” value with O14L1, with O2A14, in the assay on O2AE1, in the assay with O2AG2, with O2AJ1 and with O2AK2 was “inactive” in each case.

As for `CCCCCC(=O)O`, the “odorant receptor agonist call” value with O14L1, in the assay with O2A14, in the assay with O2AE1, in the assay with O2AG2, in the assay on O2AJ1 and in the assay with O2AK2 was “inactive” each time.

As to `CC12CCC(C1)C(C)(C)C2=O` (stereo not drawn), the “odorant receptor agonist call” value in the assay on O14L1, with O2A14, with O2AE1, in the assay with O2AG2, in the assay on O2AJ1 and in the assay on O2AK2 was “inactive” in each case.

As to `CC1=NC(C)SC1C` (stereo not drawn), the “odorant receptor agonist call” value in the assay with O14L1, in the assay with O2AE1, in the assay on O2AG2, with O2AJ1 and in the assay on O2AK2 was “inactive” each time.

For the compound `CC(C)CC(=O)O`, the “odorant receptor agonist call” value in the assay with O14L1, in the assay on O2A14, with O2AE1, in the assay on O2AG2, with O2AJ1 and in the assay on O2AK2 was “inactive” each time.

As to `CCCCO`, the “odorant receptor agonist call” value in the assay on O14L1, in the assay on O2A14, with O2AE1, in the assay with O2AG2, in the assay with O2AJ1 and in the assay with O2AK2 was “inactive” throughout.

For the compound `COC(=O)c1ccccc1O`, the “odorant receptor agonist call” value in the assay on O14L1, with O2A14, in the assay with O2AE1, with O2AG2, in the assay with O2AJ1 and in the assay with O2AK2 was “inactive” each time.

Take `CCCCCCCCCCC=O`: the “odorant receptor agonist call” value in the assay with O14L1, in the assay with O2A14, in the assay with O2AE1, in the assay on O2AG2, with O2AJ1 and in the assay on O2AK2 was “inactive” throughout.

For the compound `CC(=O)c1ccccc1`, the “odorant receptor agonist call” value in the assay on O14L1, in the assay on O2AE1, with O2AG2, in the assay with O2AJ1 and in the assay on O2AK2 was “inactive” throughout.

Consider `O=C1CCCCCCCCCCCC(=O)OCCO1`, for which the “odorant receptor agonist call” value in the assay on O14L1, in the assay on O2A14, with O2AE1, in the assay on O2AG2, in the assay on O2AJ1 and in the assay on O2AK2 was “inactive” in each case.

For the compound `CC12C=CCC1C1CCC3=CC(=O)CCC3(C)C1CC2` (stereo not drawn), the “odorant receptor agonist call” value with O14L1, in the assay with O2A14, in the assay with O2AE1, with O2AG2, with O2AJ1 and in the assay with O2AK2 was “inactive” each time.

For the compound `COC(=O)c1ccccc1`, the “odorant receptor agonist call” value in the assay with O14L1, with O2AE1, in the assay on O2AG2, with O2AJ1 and in the assay with O2AK2 was “inactive” in each case.

Regarding `O=CCc1ccccc1`, the “odorant receptor agonist call” value in the assay on O14L1, in the assay with O2A14, in the assay on O2AE1, in the assay on O2AG2, in the assay with O2AJ1 and with O2AK2 was “inactive” in each case.

As for `CCCCCC(C)=O`, the “odorant receptor agonist call” value with O14L1, in the assay with O2AE1, in the assay with O2AG2, in the assay with O2AJ1 and with O2AK2 was “inactive” throughout.

Regarding `c1cnccn1`, the “odorant receptor agonist call” value in the assay on O14L1, in the assay on O2A14, in the assay on O2AE1, with O2AG2, with O2AJ1 and in the assay with O2AK2 was “inactive” each time.

Consider `C=CCc1ccc(OC(C)=O)c(OC)c1`, for which the “odorant receptor agonist call” value in the assay on O14L1, with O2A14, in the assay on O2AE1, with O2AG2, with O2AJ1 and in the assay with O2AK2 was “inactive” each time.

For the compound `CC1=CCC(C(C)(C)O)CC1` (stereo not drawn), the “odorant receptor agonist call” value in the assay with O14L1, in the assay on O2A14, in the assay with O2AE1, in the assay with O2AG2, in the assay on O2AJ1 and in the assay with O2AK2 was “inactive” each time.

For `O=C1CCCCC1`, the “odorant receptor agonist call” value in the assay with O14L1, with O2AE1, in the assay with O2AG2, with O2AJ1 and in the assay with O2AK2 was “inactive” each time.

Values taken from the M2OR odorant receptor database.
